Values joined by “and” are separate entries in the source; they are usually repeats but may differ in a detail not shown here. Equal values may be shown once. Out of some 400,000 compounds screened, about 13,000 (3.2%) were called active. The inconclusive results got no clear call from the source; some entries with a clear call stand among them for comparison. Calls follow the shape of the dose curve; as a rule, active = well fitted cell-killing curve with a large enough effect; inconclusive = small, poorly fitted or top-dose-only effect, or effect the other way; inactive = flat fitted curve, though single readings scatter. Potencies beside an inconclusive call are fits to weak or partial responses and may not hold up.
Assay: qHTS assay for MDR1-selective chemotherapeutics: Primary screen using the drug-selected MDR subline cells KB-V1; also: nearly all actives have a fitted effect of over 60% in size
Conditions: KB-V1 MDR cells viability, CellTiter-Glo, 72 h; activity change, negative = cytotoxicity: at 46.1 µM (top of the series)
Method in brief: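 KB-V1, DMEM (no phenol red) + 10% FBS; cpd pin-transferred, titration series; 72 h, 37 degrees C; CellTiter-Glo, luminescence. Data normalized, curve-fit.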
With `O=C(COc1ccc2c3c(c(=O)oc2c1)CCC3)NCC(O)c1ccccc1` (configuration not stated) the “activity change, negative = cytotoxicity” value was inactive: -9.2%.
In the case of `O=S(=O)(Nc1cc(S(=O)(=O)N2CCOCC2)ccc1NCC1CCCO1)c1ccccc1F` (configuration not stated), the activity change, negative = cytotoxicity is reported as inconclusive: 32.5%.
For `O=C1CCC(C(=O)N2CCCCO2)CN1Cc1cccc(F)c1` (configuration not stated), the “activity change, negative = cytotoxicity” value was inactive: 1.15%.
With `Cc1nc2ccc3nc(NC(=O)c4ccc(S(=O)(=O)N5CCOCC5)cc4)sc3c2s1` the Potency was inconclusive: 1.3 µM [cytotoxic, full curve, poor fit].
In the case of `Cc1cc(OC(C)C(=O)N2CCN(c3ccccc3)CC2)c2c(C)c(C)c(=O)oc2c1` (configuration not stated), the Potency is reported as inconclusive: 32.6 µM [cytotoxic, single point].
With `CN1C(=O)c2ccccc2Sc2ccc(NC(=O)COc3ccc(F)cc3)cc21` the Potency was inconclusive: 18.4 µM [cytotoxic, single point].
For `CN(C)c1ccc(N=Nc2ccccc2C(=O)OCC(=O)N2CCCCCC2)cc1`, the Potency was active: 3.26 µM.
With `CCN(CC)CCN(C)C(c1cc2ccccc2o1)c1nnnn1C(C)(C)C` (configuration not stated) the Potency was inconclusive: 14.6 µM [cytotoxic, partial curve, poor fit].
For `COc1cccc(NC(=O)Cn2cc(C(=O)C3CC3)c3ccccc32)c1`, the Potency was inconclusive: 29.1 µM [cytotoxic, single point].
In the case of `COc1ccccc1C1CCN(Cc2ccc(C)cc2)CC1`, the “activity change, negative = cytotoxicity” value is reported as inactive: -2.69%.
With `Cc1nn(-c2ccccc2)c2nc(C3CC3)cc(C(=O)Nc3ccccc3F)c12` the Potency was inconclusive: 20.6 µM [cytotoxic, single point].
With `Cc1ccc(CNC(=O)CSc2cc(C)[nH]c(=O)n2)cc1` the Potency was inconclusive: 13 µM [rising, partial curve, poor fit].
In the case of `CCOC(=O)c1ccccc1OCc1cc(/C=N/n2cncn2)ccc1OC`, the Potency is reported as inconclusive: 16.4 µM [cytotoxic, partial curve, poor fit].
With `CN1C(N)=NC(=O)/C1=C\c1ccc(Br)cc1` the “activity change, negative = cytotoxicity” value was inactive: 21.6%.
In the case of `CC(C)(C)c1ccc(OCC(O)CN(CCO)CC(O)Cn2ccc3ccccc32)cc1` (configuration not stated), the Potency is reported as inconclusive: 29.1 µM [cytotoxic, single point].
In the case of `COc1ccc(CC(=O)Nc2ccc(S(=O)(=O)NC(C)C)cc2)cc1`, the Potency is reported as active: 16.4 µM.
For `COc1ccc(OC)c2c(C)cc(NCCN3CCOCC3)nc12`, the Potency was inconclusive: 10.3 µM [cytotoxic, partial curve, poor fit].
With `CCCOc1ccc(Cn2c(=O)oc3ccc(C)cc32)cc1OC` the Potency was active: 11.6 µM.
In the case of `Cn1c2c(c(=O)n(C)c1=O)C(C(F)(F)F)(C(F)(F)F)N=C(c1ccccc1Cl)N2`, the Potency is reported as inconclusive: 29.1 µM [cytotoxic, single point].
In the case of `CN(C)S(=O)(=O)c1cccc(NC(=O)COC(=O)c2ccc(Br)o2)c1`, the Potency is reported as inconclusive: 25.9 µM [rising, single point].
With `COc1ccc(CN(C)C(=O)c2cccc(S(=O)(=O)N3CCN(c4ccccc4)CC3)c2)c(OC)c1OC` the Potency was inconclusive: 5.8 µM [cytotoxic, partial curve].
For `CC(C)C[C@H](NC(=O)c1[nH]cnc1C(=O)N[C@@H](C)C(=O)OC(C)(C)C)C(=O)OCc1ccccc1`, the “activity change, negative = cytotoxicity” value was inactive: -29.7%.
With `CC(/C=C/c1ccccc1F)=N\NC(=O)c1cccc(F)c1` the Potency was active: 20.6 µM.
In the case of `O=C(CSc1nc(C2CC2)nc2ccccc12)N1c2ccccc2Sc2ccc(C(F)(F)F)cc21`, the Potency is reported as active: 18.4 µM.
In the case of `COc1ccc(OC)c(CCNC(=O)c2ccc3c(=O)[nH]c4c(C(=O)NC(C)C)sc(=S)n4c3c2)c1`, the “activity change, negative = cytotoxicity” value is reported as inactive: -4.37%.
With `Cc1cccc2cc(/C=N/NC(=O)c3ccccc3O)c(Cl)nc12` the Potency was inconclusive: 20.6 µM [cytotoxic, single point].
In the case of `Cc1ccc(CN(Cc2ccco2)C(=O)COc2cc(C)c(Cl)c(C)c2)cc1`, the Potency is reported as inconclusive: 29.1 µM [cytotoxic, single point].
In the case of `CC(C)OC(=O)c1cccc(NC(=O)c2ccccc2)c1`, the Potency is reported as active: 11.6 µM.
In the case of `CC1(C)CCCN(Cc2c(O)ccc3c(=O)c(-c4nc5ccccc5s4)c(N)oc23)C1`, the Potency is reported as inconclusive: 29.1 µM [cytotoxic, single point].
With `CCOc1ccc(CSC2=NCCN2)cc1[N+](=O)[O-]` the Potency was inconclusive: 23.1 µM [cytotoxic, single point].
In the case of `CCOC(=O)[C@H]1[C@H]2COc3ccc(OC)cc3[C@@H]2N2C(=O)CN(C)C(=O)[C@@]12C`, the Potency is reported as inconclusive: 29.1 µM [rising, single point].
In the case of `CC1(C)C2CCC1(CS(=O)(=O)NC1CCCC1)C(=O)C2` (configuration not stated), the Potency is reported as inconclusive: 29.1 µM [cytotoxic, partial curve, poor fit].
With `O=C(Cn1c(=O)[nH]c2ccccc2c1=O)Nc1cccnc1` the Potency was inconclusive: 29.1 µM [rising, single point].
With `O=C(NNc1ccc([N+](=O)[O-])cc1[N+](=O)[O-])C1C2CCCCC21` (configuration not stated) the Potency was inconclusive: 2.31 µM [cytotoxic, partial curve].
For `O=C1c2ccccc2C(=O)N1OCCCN1C(=O)c2ccccc2S1(=O)=O`, the Potency was inconclusive: 14.6 µM [cytotoxic, single point].
In the case of `COc1ccc(NC(=O)CSCC(=O)N(C)Cc2c(F)cccc2Cl)cc1`, the “activity change, negative = cytotoxicity” value is reported as inactive: -5.14%.
For `COc1cccc(C2C3=C(CC(C)(C)CC3=O)Nc3cc4c(cc32)OCO4)c1` (configuration not stated), the Potency was inconclusive: 29.1 µM [cytotoxic, single point].
With `Cc1nn(-c2ccccc2)c(C)c1/C=N/NC(=O)c1cc(C23CC4CC(CC(C4)C2)C3)[nH]n1` the Potency was inconclusive: 18.4 µM [cytotoxic, single point].
With `O=C(Nc1ccc(OCc2ccccc2)cc1)c1cccs1` the “activity change, negative = cytotoxicity” value was inactive: 4.94%.
For `COc1cccc2cc(C(=O)CS(=O)(=O)c3ccc(Cl)cc3)c(=O)oc12`, the “activity change, negative = cytotoxicity” value was inactive: 5.25%.
With `CCOC(=O)N1CCN(C(=O)CN(c2ccccc2)S(C)(=O)=O)CC1` the “activity change, negative = cytotoxicity” value was inactive: -0.0802%.
In the case of `O=C(CSc1ccc(-c2ccc(Cl)cc2)nn1)N1CCCc2ccccc21`, the “activity change, negative = cytotoxicity” value is reported as inactive: 0%.
In the case of `O=C(NC1CCCCC1)N(Cc1cc2cc3c(cc2[nH]c1=O)OCCO3)CC1CCCO1` (configuration not stated), the Potency is reported as inconclusive: 25.9 µM [cytotoxic, partial curve, poor fit].
In the case of `C=CCN1CCN(C(c2ccc(OC)c(OC)c2)c2nnnn2C(C)(C)C)CC1` (configuration not stated), the Potency is reported as inconclusive: 29.1 µM [cytotoxic, single point].
In the case of `Cc1cc(C(F)F)n2nc(C(=O)Nc3c(C)cccc3C)nc2n1`, the “activity change, negative = cytotoxicity” value is reported as inactive: 7.63%.
With `CC(c1ccccc1)N1CC(C(=O)N2CCN(c3ccc(F)cc3)CC2)CC1=O` (configuration not stated) the Potency was inconclusive: 5.17 µM [cytotoxic, partial curve, poor fit].
For `CCCCN(CCCC)S(=O)(=O)c1ccc(N2CCCC2=O)c([N+](=O)[O-])c1`, the Potency was inconclusive: 16.4 µM [cytotoxic, single point].
With `CCCn1c(N)c(NCCN2CCOCC2)c(=O)n(CC(=O)NCc2ccccc2)c1=O` the “activity change, negative = cytotoxicity” value was inactive: -0.838%.
In the case of `O=C(CCc1nnc(-c2ccccc2)o1)c1ccc(Cl)cc1`, the Potency is reported as inconclusive: 11.6 µM [cytotoxic, partial curve, poor fit].
For `CC(C)(C)c1cc(C2=CSC3=NCCN23)cc(C(C)(C)C)c1O`, the Potency was inconclusive: 29.1 µM [rising, partial curve, poor fit].
For `Cc1ccc(-c2nnn(CC(=O)N(CC(=O)NC3CCCCC3)c3cccc(F)c3)n2)o1`, the Potency was inconclusive: 5.17 µM [cytotoxic, partial curve, poor fit].
With `Cc1oc(C(C)(C)C)c(CN2CCCC2)c1C(=O)O` the Potency was inconclusive: 25.9 µM [rising, single point].
For `O=C(NCCCN1CCOCC1)c1cccc(S(=O)(=O)Nc2cc(Cl)ccc2Cl)c1`, the “activity change, negative = cytotoxicity” value was inactive: 4.36%.
For `O=C(Nc1nc(-c2cccs2)cs1)c1ccc(S(=O)(=O)N2CCCCC2)cc1`, the Potency was inconclusive: 29.1 µM [cytotoxic, single point].
For `Cc1cc(C)c(NC(=O)CSc2nc3nc(C)cc(C)n3n2)c(C)c1`, the Potency was inconclusive: 20.6 µM [cytotoxic, partial curve, poor fit].
For `O=C(c1[nH]c(C(F)(F)F)nc1-c1ccccc1)N1CCN(c2ccccc2)CC1`, the Potency was inconclusive: 3.26 µM [cytotoxic, partial curve, poor fit].
For `N#C/C(=C\c1ccc([N+](=O)[O-])cc1)c1ccccn1`, the Potency was inconclusive: 29.1 µM [cytotoxic, single point].
For `CCn1nc(NC(=O)C(C)C)c2cc3cccc(C)c3nc21`, the “activity change, negative = cytotoxicity” value was inactive: -0.614%.
With `CCN(CC)c1cc(C)c2cc(NC(=O)c3ccccc3OC)ccc2n1` the Potency was inconclusive: 20.6 µM [cytotoxic, partial curve, poor fit] and inconclusive: 16.4 µM [cytotoxic, single point].
With `Cc1cc(/C=C2/NC(=O)N(Cc3ccccc3F)C2=O)c(C)n1-c1ccccn1` the Potency was inconclusive: 4.61 µM [cytotoxic, full curve, poor fit].
In the case of `COc1cc2ccccc2cc1C(=O)N/N=C/c1cccs1`, the Potency is reported as active: 9.2 µM.
For `Cc1cc(OCC(=O)Nc2ccccc2C(N)=O)c2c(C)cc(=O)oc2c1`, the Potency was inconclusive: 25.9 µM [rising, single point].
For `Cc1ccc(CNC(=O)CN(C)S(=O)(=O)c2ccc(F)cc2)cc1`, the “activity change, negative = cytotoxicity” value was inactive: -21.4%.
For `COc1ccc(/C=C2\C(=O)ON=C2c2ccccc2)cc1`, the Potency was inconclusive: 29.1 µM [cytotoxic, single point].
For `N#Cc1cnc(Sc2ccccc2)nc1`, the Potency was inconclusive: 18.4 µM [rising, single point].
With `CCCc1cc2c(cc1NS(=O)(=O)c1ccc(CCNC(C)=O)cc1)OCO2` the “activity change, negative = cytotoxicity” value was inactive: 9.14%.
In the case of `COc1ccc2c(CC(=O)OCC(=O)c3ccccc3OC)coc2c1`, the Potency is reported as inconclusive: 23.1 µM [rising, single point].

Reference: PubChem BioAssay AID1347076 (National Center for Advancing Translational Sciences (NCATS), 2019)
% is scaled to controls: 0 for no effect and ±100 for the full control effect; potency is read from the fitted curve at half-maximal effect.
